The values that follow come from US20020164640A1.

The chains behind the UniProt entries cited, without tags or fusion partners. Residues count along the entry.
UniProt Q99836, residues 152-296: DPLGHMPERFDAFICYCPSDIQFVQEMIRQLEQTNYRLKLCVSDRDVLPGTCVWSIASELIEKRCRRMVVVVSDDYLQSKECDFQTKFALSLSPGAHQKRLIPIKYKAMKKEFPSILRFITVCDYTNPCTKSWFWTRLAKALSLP

These are yes or no findings as the source states them, for the method shown. In cells and extracts the contact can be indirect. Some entries that bind do so weakly or less than the wild type. Where a sequence is shown, tags or fusion partners need not be part of it.

The target in assay [1] is T1, myc-IRAK-2 (UniProt O43187).
T1 sequence (looked up): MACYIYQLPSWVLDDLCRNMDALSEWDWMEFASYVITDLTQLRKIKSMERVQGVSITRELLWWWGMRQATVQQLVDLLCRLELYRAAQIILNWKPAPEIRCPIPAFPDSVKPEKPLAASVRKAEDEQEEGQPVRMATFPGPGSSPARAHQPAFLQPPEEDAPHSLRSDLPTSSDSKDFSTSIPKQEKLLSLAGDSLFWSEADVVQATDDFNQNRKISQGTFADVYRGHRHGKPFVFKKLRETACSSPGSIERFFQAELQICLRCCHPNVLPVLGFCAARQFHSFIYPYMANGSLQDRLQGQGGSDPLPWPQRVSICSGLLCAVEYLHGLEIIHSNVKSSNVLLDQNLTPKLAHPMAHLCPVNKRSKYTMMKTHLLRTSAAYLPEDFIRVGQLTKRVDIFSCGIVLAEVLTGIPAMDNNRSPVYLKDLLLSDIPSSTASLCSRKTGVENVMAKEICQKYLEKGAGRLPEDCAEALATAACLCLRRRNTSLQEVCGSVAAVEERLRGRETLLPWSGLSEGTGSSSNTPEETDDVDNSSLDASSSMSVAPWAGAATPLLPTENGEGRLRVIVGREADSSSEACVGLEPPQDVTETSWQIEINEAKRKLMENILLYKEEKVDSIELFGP
Nature of the assay: co-immunoprecipitation from transfected HEK293 cells: anti-HA IP, anti-myc immunoblot. Background: Immunoblotting shows a protein as a band on a membrane.

The target in assay [2] is labelled TIR domain of MyD88 (AU-1-TIR-MyD88) (UniProt Q99836). Briefly: co-immunoprecipitation from transfected HEK293 cells: anti-AU1 IP, anti-HA immunoblot.

B1: labelled TIR domain of MAL-1 (HA-TIR-MAL-1) (protein, not shown: small tags and cut ends)
chain: YDVCVCHSEEDLVAAQDLVSYLEGSTASLRCFLQLRDATPGGAIVSELCQALSSSHCRVLLITPGFLQDPWCKYQMLQALTEAPGAEGCTIPLLSGLSRAAYPPELRFMYYVDGRGPDGGFRQVKEAVMRCKLLQEGEGERDSATVSDLL
Take B1: the binding entry in assay [1] and in assay [2] was “binds” in each case.
